Laboratory results published in patent US12419848B2, “Treatment of hyperinflammatory syndrome” (priority 2020, dated 2025).

System: allergic reaction to processionary caterpillar toxin

With CCN(CC)CC(=O)Nc1c(C)cccc1C [lidocaine base, lidocaine] the itching skin rash (after 1 hour) was “improved dramatically”, the “time until all respiratory symptoms had disappeared” value (sublingual 100 mg) was 15 min and the “time until symptoms started to improve” value (sublingual 100 mg) was no more than 10 min.
